We go through 19 compounds from PubChem BioAssay AID248 (DTP/NCI, 2004).

The assay concerns L1210 leukemia ip in BDF1 mice, survival T/C. The assay can be described thus: NCI In Vivo Anticancer Drug Screen. Data for tumor model L1210 Leukemia (intraperitoneal) in B6D2F1 (BDF1) mice. The conditions noted are these: T/C endpoint: mean survival time, higher T/C = longer survival.
The mark [1] stands for this setting: dose: 400.0 mg/kg/injection, schedule: Q04DX003 (ip), vehicle: saline.
Where [2] appears, read: dose: 400.0 mg/kg/injection, schedule: Q01DX009 (ip), vehicle: Klucel (hydroxypropylcellulose) (HPC).
The mark [3] stands for this setting: dose: 200.0 mg/kg/injection, schedule: Q01DX009 (ip), vehicle: Klucel (hydroxypropylcellulose) (HPC).
Where [4] appears, read: dose: 100.0 mg/kg/injection, schedule: Q01DX009 (ip), vehicle: saline with Tween-80.
Where [5] appears, read: dose: 400.0 mg/kg/injection, schedule: Q01DX001 (ip), vehicle: saline.
[6] abbreviates: dose: 400.0 mg/kg/injection, schedule: Q04DX002 (ip), vehicle: saline.

The structures appear in SMILES notation. The list does not hold the whole screen: it gathers tests that were run many times, whatever their T/C, doses with no T/C, and many T/C values between a quarter and a half above the control. Further doses and runs are listed elsewhere. T/C: endpoint of the treated group in % of that of the vehicle group. Some doses have a count of surviving animals in place of a T/C: the source files T/C as zero there, which appears to mark a toxic dose or a test without result, not a measured value. Some survivor counts are full or nearly so, which does not show that the dose was tolerated: the source hardly ever lists a survival T/C far under the control, and the zero likely stands for such cases as well. Counts of survivors are from the toxicity check (mostly the fifth day) where no day follows; animals may have died later. Schedules are NCI's codes, taken here to give the interval after Q, in days (D) or hours (H), and the number of doses after X.

In the case of `Nc1nc(N)c2nc(CN3CCCc4cc(C(=O)NC(CCC(=O)O)C(=O)O)ccc43)cnc2n1` (centres undefined), the survivor count by setting is: (dose: 200.0 mg/kg/injection, schedule: Q04DX003 (ip), vehicle: saline) 6 of 6; under setting [1], 6 of 6. As to `CCCC(C(=O)OCCNC1CCCCC1)c1ccccc1` (centres undefined), the survivor count runs as follows: (dose: 150.0 mg/kg/injection, schedule: Q01DX001 (ip), vehicle: saline) 3 of 6; (dose: 300.0 mg/kg/injection, schedule: Q01DX001 (ip), vehicle: saline) 0 of 6. As to `Cc1ccc(/C(C#N)=C2C=C(Br)/C(=N\O)C=C/2Cl)cc1`, for the setting “dose: 335.0 mg/kg/injection, schedule: Q01DX009 (ip), vehicle: saline with Tween-80”, the survivor count was 3 of 6.

With `C/C=C(/C)C(=O)O[C@H]1CCN2CC=C(COC(=O)[C@@](O)([C@H](C)OC)C(C)(C)O)[C@H]12`, the survivor count runs as follows: (dose: 100.0 mg/kg/injection, schedule: Q01DX001 (ip), vehicle: other) 2 of 6; (dose: 200.0 mg/kg/injection, schedule: Q01DX001 (ip), vehicle: other) 0 of 6; (dose: 400.0 mg/kg/injection, schedule: Q01DX001 (ip), vehicle: other) 0 of 6.

Turning to `Cc1nc(N)[nH]c(=O)c1Br`, the survivor count under setting [2] is listed as 3 of 6. As for `CC(=O)Oc1c2c(c(CC=C(C)C)c3c1C(=O)C1=CC4CC5C(C)(C)OC(C/C=C(/C)C(=O)O)(C4=O)C15O3)OC(C)(CCC=C(C)C)C=C2` (centres undefined), the survivor count under setting [3] is 1 of 6. In the case of `Cc1c(N=NN(C)C)c(=O)n(-c2ccccc2)n1C`, the survivor count is, setting by setting: under setting [4], 5 of 6; (dose: 200.0 mg/kg/injection, schedule: Q01DX001 (ip), vehicle: saline with Tween-80) 0 of 6; (dose: 400.0 mg/kg/injection, schedule: Q01DX001 (ip), vehicle: saline with Tween-80) 0 of 6.

As for `CCNCC(=O)N(N=O)C(=O)OCC`, the survivor count (dose: 300.0 mg/kg/injection, schedule: Q01DX001 (ip), vehicle: steroid suspending solution) is 6 of 6. Turning to `O=C(O)c1ccccc1C(=O)Nc1ccc([N+](=O)[O-])cc1Cl`, the survivor count (dose: 400.0 mg/kg/injection, schedule: Q04DX003 (ip), vehicle: Klucel (hydroxypropylcellulose) (HPC)) is 3 of 6. For the compound `O=C(Cc1ccccc1)NCc1ccccc1`, the survivor count is, setting by setting: (dose: 100.0 mg/kg/injection, schedule: Q01DX001 (ip), vehicle: saline) 1 of 3; under setting [5], 0 of 3. For the compound `CCCCN1CC1(C)C` (centres undefined), the survivor count reads like this: (dose: 200.0 mg/kg/injection, schedule: Q01DX001 (ip), vehicle: saline) 0 of 6; under setting [5], 0 of 6. Turning to `Cc1c2oc3c(C)ccc(C(=O)NCCN4CCCCC4)c3nc-2c(C(=O)NCCN2CCCCC2)c(N)c1=O`, the survivor count under setting [6] is listed as 0 of 3. As to `c1ccc2c(c1)c1c(n2N2CCCCC2)CCC1`, where the note is “dose: 400.0 mg/kg/injection, schedule: Q04DX002 (ip), vehicle: saline with Tween-80”, the survivor count was 0 of 3.

Consider `CSCCC(C#N)c1ccccc1` (centres undefined), for which the survivor count (dose: 400.0 mg/kg/injection, schedule: Q04DX003 (ip), vehicle: saline with Tween-80) is on record as 1 of 6 and the survivor count under setting [1] is recorded as 1 of 6. In the case of `C1CCC2C[N-]CCC2C1.C1CCC2C[N-]CCC2C1.C1CCC2C[N-]CCC2C1.C1CCC2C[N-]CCC2C1.[I][Fe][I]` (centres undefined), under “dose: 200.0 mg/kg/injection, schedule: Q01DX009 (ip), vehicle: saline”, the survivor count is given as 3 of 6. On to `CO[C@H]1/C=C/O[C@@]2(C)Oc3c(C)c(O)c4c(O)c(c(/C=N/N5CCNCC5)c(O)c4c3C2=O)NC(=O)/C(C)=C\C=C\[C@H](C)[C@H](O)[C@@H](C)[C@@H](O)[C@@H](C)C(OC(C)=O)[C@@H]1C` (some centres undefined), for which, under setting [2], the survivor count is listed as 2 of 6. Turning to `COc1ccc(Cl)cc1NC(=O)Oc1ccccn1`, the survivor count is reported as 6 of 6 (dose: 100.0 mg/kg/injection, schedule: Q01DX001 (ip), vehicle: saline with Tween-80); 3 of 3 under setting [4]; 3 of 6 (dose: 400.0 mg/kg/injection, schedule: Q01DX009 (ip), vehicle: saline with Tween-80). Regarding `CCN(CC)CCN(C(=S)Nc1ccccc1)c1ccccc1`, the survivor count by setting is: (dose: 100.0 mg/kg/injection, schedule: Q01DX009 (ip), vehicle: Klucel (hydroxypropylcellulose) (HPC)) 3 of 6; under setting [3], 0 of 6; under setting [2], 0 of 6. As to `NC(=O)C1C2C=CC(O2)C1C(=O)O` (centres undefined), the survivor count (dose: 100.0 mg/kg/injection, schedule: Q04DX002 (ip), vehicle: saline) was 0 of 3; the survivor count (dose: 200.0 mg/kg/injection, schedule: Q04DX002 (ip), vehicle: saline) is recorded as 0 of 3; the survivor count under setting [6] is 0 of 3.
